Data: paper PMC13241479
No constants are given. Whether binding was seen depends on the method and setting. Binding seen in cells or lysates may run through a third protein. These calls come from enrichment with a bait or labelling near it, and not all partners need be listed. Sequences can lack the tags named with a protein.

Amino acid sequences for entries named in this document (tags omitted). A change or cut given only in a name is not applied to a line headed by its entry. Residues count along the entry.
UniProt Q3T0E5: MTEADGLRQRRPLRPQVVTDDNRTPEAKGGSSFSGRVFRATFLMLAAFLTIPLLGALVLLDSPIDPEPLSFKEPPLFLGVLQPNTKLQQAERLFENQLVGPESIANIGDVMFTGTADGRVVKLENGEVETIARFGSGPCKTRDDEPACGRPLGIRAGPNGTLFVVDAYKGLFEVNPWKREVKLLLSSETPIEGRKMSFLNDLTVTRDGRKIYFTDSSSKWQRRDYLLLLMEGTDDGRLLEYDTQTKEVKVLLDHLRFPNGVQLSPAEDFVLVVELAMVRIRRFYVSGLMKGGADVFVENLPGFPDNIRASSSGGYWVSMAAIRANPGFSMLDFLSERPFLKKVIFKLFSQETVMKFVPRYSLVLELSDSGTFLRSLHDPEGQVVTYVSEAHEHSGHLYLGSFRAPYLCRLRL
UniProt Q3MHN2, residues 22-548: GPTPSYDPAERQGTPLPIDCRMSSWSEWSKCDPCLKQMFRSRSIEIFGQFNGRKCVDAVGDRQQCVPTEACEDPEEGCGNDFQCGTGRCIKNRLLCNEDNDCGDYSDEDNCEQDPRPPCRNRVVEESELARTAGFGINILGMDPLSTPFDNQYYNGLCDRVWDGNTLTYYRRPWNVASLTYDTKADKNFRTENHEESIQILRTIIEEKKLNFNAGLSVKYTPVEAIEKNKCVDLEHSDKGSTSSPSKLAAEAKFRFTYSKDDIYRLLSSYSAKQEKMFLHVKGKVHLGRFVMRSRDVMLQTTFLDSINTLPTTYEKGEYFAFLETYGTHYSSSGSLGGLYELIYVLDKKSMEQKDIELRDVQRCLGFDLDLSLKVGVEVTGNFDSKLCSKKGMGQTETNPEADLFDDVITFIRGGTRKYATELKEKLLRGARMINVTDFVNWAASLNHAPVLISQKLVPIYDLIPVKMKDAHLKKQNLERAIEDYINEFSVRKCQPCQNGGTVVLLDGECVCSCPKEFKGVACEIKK
UniProt Q3SX14: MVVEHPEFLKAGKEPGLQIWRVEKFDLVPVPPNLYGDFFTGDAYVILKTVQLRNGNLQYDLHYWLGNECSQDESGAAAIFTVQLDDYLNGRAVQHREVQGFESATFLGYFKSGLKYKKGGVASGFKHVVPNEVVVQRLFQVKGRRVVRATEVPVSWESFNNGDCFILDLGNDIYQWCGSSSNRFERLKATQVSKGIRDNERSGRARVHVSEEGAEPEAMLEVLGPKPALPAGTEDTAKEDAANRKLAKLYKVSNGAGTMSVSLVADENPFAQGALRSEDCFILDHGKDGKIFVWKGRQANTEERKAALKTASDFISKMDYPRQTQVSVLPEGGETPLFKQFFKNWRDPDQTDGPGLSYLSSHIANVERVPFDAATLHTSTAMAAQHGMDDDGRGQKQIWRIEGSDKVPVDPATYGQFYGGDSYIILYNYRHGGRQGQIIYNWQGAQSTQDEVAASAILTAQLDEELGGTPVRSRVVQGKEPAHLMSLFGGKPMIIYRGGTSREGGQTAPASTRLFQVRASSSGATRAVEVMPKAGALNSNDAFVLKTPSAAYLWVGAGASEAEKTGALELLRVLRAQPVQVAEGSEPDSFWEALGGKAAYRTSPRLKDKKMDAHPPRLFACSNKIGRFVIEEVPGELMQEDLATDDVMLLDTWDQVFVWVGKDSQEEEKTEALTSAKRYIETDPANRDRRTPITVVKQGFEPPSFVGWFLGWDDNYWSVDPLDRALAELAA
UniProt P12763, residues 19-359: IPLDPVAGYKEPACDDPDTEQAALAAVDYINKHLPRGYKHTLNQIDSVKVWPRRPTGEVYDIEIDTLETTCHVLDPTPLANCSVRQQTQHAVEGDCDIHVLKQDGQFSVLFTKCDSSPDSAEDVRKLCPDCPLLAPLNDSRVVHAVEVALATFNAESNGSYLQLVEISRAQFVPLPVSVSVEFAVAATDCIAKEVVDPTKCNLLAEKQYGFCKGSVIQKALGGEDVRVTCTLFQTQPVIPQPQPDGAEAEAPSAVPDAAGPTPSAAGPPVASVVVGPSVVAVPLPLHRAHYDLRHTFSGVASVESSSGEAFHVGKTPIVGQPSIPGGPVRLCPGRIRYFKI

These substances were tested against T1, His-ALFA-SAA1-N terminus (human SAA1 19-94 aa) (human) (UniProt P0DJI8) (assay: affinity purification with mass spectrometry; ALFA-SAA1 (8 μM, urea-denatured stock) added to 50% bovine plasma in PBS, 16 h at 4°C; cleared at 20,000g; ALFA-nanobody beads 1 h at 4°C; washed four times with PBS; LC-MS/MS; only the target purified).
T1 sequence: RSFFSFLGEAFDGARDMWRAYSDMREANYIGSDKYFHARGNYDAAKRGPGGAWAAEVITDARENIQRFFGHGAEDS

| Substance | binding |
| --- | --- |
| APMAP (bovine plasma) (from UniProt Q3T0E5) | binds |
| C9 (bovine plasma) (from UniProt Q3MHN2 22-548) | binds |
| COL6A3 (bovine plasma) | binds |
| GSN (bovine plasma) (from UniProt Q3SX14 1-731) | binds |
| SERPINA10 (bovine plasma) | binds |
| SERPIND1 (bovine plasma) | binds |
| VTN (bovine plasma) | binds |

Results, then the substance that gave them:

| binding | Substance |
| --- | --- |
| binds | AHSG (bovine plasma) (from UniProt P12763 19-359) |
| binds | APOB (bovine plasma) |
| binds | COL18A1 (bovine plasma) |
| binds | clusterin (bovine plasma) |
